Source: paper PMC10213043, “Different viral effectors suppress hormone-mediated antiviral immunity of rice coordinated by OsNPR1” (Nature Communications, 2023)
Results are given in words; binding and its absence hold for the method and conditions named. A result given as binding can be weak or reduced; the word gives no strength. Where a sequence is shown, tags or fusion partners need not be part of it. For some assays here: Binding seen in cells or lysates may run through a third protein.

By UniProt entry, the sequences of proteins in these tests, tags left out. Where a name states a change or a piece, a line headed by the entry shows the natural chain unless it says otherwise.
UniProt Q5N8F6: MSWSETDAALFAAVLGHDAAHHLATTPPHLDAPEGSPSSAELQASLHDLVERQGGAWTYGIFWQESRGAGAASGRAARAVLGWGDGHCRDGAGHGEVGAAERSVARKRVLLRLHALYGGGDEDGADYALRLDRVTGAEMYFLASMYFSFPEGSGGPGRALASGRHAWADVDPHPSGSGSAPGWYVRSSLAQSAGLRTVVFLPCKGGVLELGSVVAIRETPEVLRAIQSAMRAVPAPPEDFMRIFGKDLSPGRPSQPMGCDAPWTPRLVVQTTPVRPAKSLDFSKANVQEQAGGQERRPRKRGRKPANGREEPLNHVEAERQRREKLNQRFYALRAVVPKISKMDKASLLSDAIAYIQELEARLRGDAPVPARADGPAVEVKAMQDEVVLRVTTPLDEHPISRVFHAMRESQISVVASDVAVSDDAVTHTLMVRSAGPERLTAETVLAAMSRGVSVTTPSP

Legend:
GST-OsNPR1 (rice) = target: T1, GST-OsNPR1 (rice) (UniProt Q9FDY4); assay: pull-down; purified proteins, 5 µg GST-OsNPR1 with 5 µg MBP-HIS-OsNPR1 or 5 µg MBP-HIS-OsCUL3a, plus 1 or 10 µg MBP-HIS-P2 (or 10 µg MBP-HIS); held on glutathione sepharose beads, 4 °C, 2 h, washed with 1x PBS; both purified
T1 sequence: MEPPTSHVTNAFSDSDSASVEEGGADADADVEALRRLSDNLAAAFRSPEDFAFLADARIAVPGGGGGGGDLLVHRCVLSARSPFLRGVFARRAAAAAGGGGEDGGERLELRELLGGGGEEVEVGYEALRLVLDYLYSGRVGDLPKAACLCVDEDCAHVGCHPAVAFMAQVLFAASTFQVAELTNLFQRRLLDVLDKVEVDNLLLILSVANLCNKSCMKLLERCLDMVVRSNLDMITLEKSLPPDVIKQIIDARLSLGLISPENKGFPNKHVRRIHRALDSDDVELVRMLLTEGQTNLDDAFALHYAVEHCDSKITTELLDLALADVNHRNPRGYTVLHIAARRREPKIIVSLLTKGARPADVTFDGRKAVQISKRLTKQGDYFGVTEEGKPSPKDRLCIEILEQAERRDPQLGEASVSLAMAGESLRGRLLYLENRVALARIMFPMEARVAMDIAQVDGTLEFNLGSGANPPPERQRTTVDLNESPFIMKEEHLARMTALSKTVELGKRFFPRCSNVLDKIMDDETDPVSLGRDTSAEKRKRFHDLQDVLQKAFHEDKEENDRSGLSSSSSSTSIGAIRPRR

OsNPR1-cYFP (rice) [1] = target: T2, OsNPR1-cYFP (rice) (UniProt Q9FDY4); assay: split reporter; BiFC: nYFP and cYFP fusions co-expressed in N. benthamiana leaves (WT or NahG transgenic), confocal microscopy at 48 h
T2 sequence: T1 sequence

[2] = target: T3, OsNPR1 fused with BD (yeast bait vector pGBKT7) (rice) (UniProt Q9FDY4); assay: two-hybrid; yeast AH109; OsNPR1 or its truncations on BD (pGBKT7), partner on AD (pGADT7); growth on SD-L-T-H-Ade, 30 °C, 3 days, with or without 0.1 mM SA
T3 sequence: T1 sequence

nYFP-OsNPR1 (rice) [3] = target: T4, nYFP-OsNPR1 (rice) (UniProt Q9FDY4); assay: split reporter; BiFC in N. benthamiana leaves with or without a third protein (P2-FLAG, with or without MG132; OsNPR1-MYC)
T4 sequence: T1 sequence

OsNPR1-cYFP (rice) [4] = target: T2, OsNPR1-cYFP (rice); assay: as above
OsNPR1-GFP (rice) [5] = target: T5, OsNPR1-GFP (rice) (UniProt Q9FDY4); assay: co-IP; protein competition Co-IP: two tagged proteins co-expressed in N. benthamiana leaves with or without a third protein (OsCTD-FLAG, P2-FLAG with 100 µM MG132, or OsNPR1)
T5 sequence: T1 sequence

[6] = target: T6, OsBTB-GFP (BTB domain of OsNPR1) (rice) (UniProt Q9FDY4); assay: as above
T6 sequence: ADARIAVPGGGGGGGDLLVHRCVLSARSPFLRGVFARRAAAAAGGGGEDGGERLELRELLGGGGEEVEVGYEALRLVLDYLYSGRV

[7] = target: T6, OsBTB-GFP (BTB domain of OsNPR1) (rice); assay: co-IP; transient co-expression in N. benthamiana leaves (WT or NahG transgenic), no SA added; IP lysis buffer with 10 mM DTT; anti-FLAG, GFP-trap or anti-c-Myc beads, about 2 h at 4 °C
[8] = target: T7, BTB domain of OsNPR1 as a split-luciferase fusion (LCI) (rice) (UniProt Q9FDY4); assay: split reporter; firefly luciferase complementation imaging (LCI): nLuc and cLuc fusions co-expressed in N. benthamiana leaves, about 48 h
T7 sequence: T6 sequence

nYFP-OsNPR1 (rice) [9] = target: T4, nYFP-OsNPR1 (rice); assay: split reporter; BiFC: nYFP and cYFP fusions co-expressed in N. benthamiana leaves (WT or NahG transgenic), confocal microscopy at 48 h
OsNPR1-GFP (rice) [10] = target: T5, OsNPR1-GFP (rice); assay: co-IP; transient co-expression in N. benthamiana leaves (WT or NahG transgenic), no SA added; IP lysis buffer with 10 mM DTT; anti-FLAG, GFP-trap or anti-c-Myc beads, about 2 h at 4 °C
OsNPR1-GFP (rice) [11] = target: T5, OsNPR1-GFP (rice); assay: co-IP; protein competition Co-IP: OsNPR1-GFP and OsMYC3-MYC in N. benthamiana leaves with or without SP8-FLAG or M-FLAG; MG132 (100 µM) or DMSO at 24 hpi; GFP beads

## MBP-HIS-P2 (rice stripe virus)
GST-OsNPR1 (rice)
  binding: binds

## nYFP-OsJAZ9 (rice)
OsNPR1-cYFP (rice) [1]
  binding: binds

## OsJAZ11 (yeast two-hybrid fusion) (rice)
[2]
  binding: binds

## P2-FLAG (rice stripe virus)
nYFP-OsNPR1 (rice) [3]
  binding: binds
OsNPR1-cYFP (rice) [4]
  binding: binds
OsNPR1-GFP (rice) [5]
  binding: binds

## OsJAZ5 (yeast two-hybrid fusion) (rice)
[2]
  binding: binds

## nYFP-P2 (rice stripe virus)
OsNPR1-cYFP (rice) [1]
  binding: binds

## OsCTD-MYC (C-terminal domain of OsNPR1) (rice) (domain or fragment)
[6]
  binding: binds
[7]
  binding: binds

## CTD domain of OsNPR1 as a split-luciferase fusion (LCI) (rice) (domain or fragment)
[8]
  binding: binds

## OsMYC3-cYFP (from UniProt Q5N8F6)
nYFP-OsNPR1 (rice) [3]
  binding: binds
nYFP-OsNPR1 (rice) [9]
  binding: binds

## RSV P2 fused with AD (yeast prey vector pGADT7) (rice stripe virus)
[2]
  binding: binds

## OsCTD-FLAG (C-terminal domain of OsNPR1) (rice) (domain or fragment)
[6]
  binding: binds

## OsMYC3-MYC (from UniProt Q5N8F6)
OsNPR1-GFP (rice) [5]
  binding: binds
OsNPR1-GFP (rice) [10]
  binding: binds
OsNPR1-GFP (rice) [11]
  binding: binds

## OsMED25 expressed in N. benthamiana for Co-IP (rice)
OsNPR1-GFP (rice) [10]
  binding: no binding

## OsJAZ9 (yeast two-hybrid fusion) (rice)
[2]
  binding: binds
